Reference: PubChem BioAssay AID1259306 (Sanger Institute, 2017)
The whole screen tested 794 reagents; below is a random part of them. 11 of them (1.4%) were called active. 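Calls reflect knock-down alone; synergy scores play no part, so knock-downs synergising with a drug can be called no change.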 Not all columns of the deposit are shown. Not given: the amount of reagent, the time to read-out.

Purpose: 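Kinase-wide siRNA screen for partners of targeted drugs in colorectal cancer cells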 (primary screen)
Cell system: human SNU-C5 colorectal cancer cells
Knock-down reagent: siRNA pool against human genes
Challenge: DMSO vehicle alone, or one anchor drug: BYL719 at 1 µM, cetuximab at 5 µg/ml or trametinib at 10 nM, given 24 h into the assay
Detection: 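Viability versus non-targeting pool averaged across replicates, given as fraction and robust z-score, and synergy scores for BYL719, cetuximab or trametinib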
Reading the numbers: robust z-score, knock-down alone: higher = more viable cells
Rule for the call: 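Called essential when the robust z-score for knock-down alone is below -3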
Calls: active = essential (knock-down alone); inactive = no change alone

TCF12 (transcription factor 12) showed robust z-score, knock-down alone 0.416; inactive.
PIP5K1B (phosphatidylinositol-4-phosphate 5-kinase type 1 beta) showed robust z-score, knock-down alone 0.989; inactive.
For BUB1 (BUB1 mitotic checkpoint serine/threonine kinase) the deposit lists robust z-score, knock-down alone 0.826; inactive.
GUCY2D (guanylate cyclase 2D, retinal) gave robust z-score, knock-down alone -2.74; inactive.
Silencing of BCOR (BCL6 corepressor) came out at: robust z-score, knock-down alone 0.93; inactive.
With knock-down of GRK2 (G protein-coupled receptor kinase 2), the record shows robust z-score, knock-down alone 0.352; inactive.
After knock-down of RPS6KC1 (ribosomal protein S6 kinase C1), the screen gave robust z-score, knock-down alone -1.31; inactive.
Against FXN (frataxin), the values are robust z-score, knock-down alone 0.989; inactive.
With knock-down of ROR1 (ROR family WNT receptor 1), the screen gave robust z-score, knock-down alone 0.761; inactive.
Depletion of NEK5 (NIMA related kinase 5) came out at: robust z-score, knock-down alone 0.989; inactive.
Against PTPRU (protein tyrosine phosphatase receptor type U) the deposit lists robust z-score, knock-down alone -0.687; inactive.
CDC42BPA (CDC42 binding protein kinase alpha) gave robust z-score, knock-down alone -2.34; inactive.
For STRADB (STE20 related adaptor beta) the deposit lists robust z-score, knock-down alone -1.17; inactive.
ITSN1 (intersectin 1) gave robust z-score, knock-down alone -0.273; inactive.
Against CDK11A (cyclin dependent kinase 11A), the values are robust z-score, knock-down alone -2.24; inactive.
Silencing of EIF2AK2 (eukaryotic translation initiation factor 2 alpha kinase 2) gave: robust z-score, knock-down alone 0.626; inactive.
Depletion of PINK1 (PTEN induced kinase 1) resulted in: robust z-score, knock-down alone 0.989; inactive.
Knock-down of DYRK3 (dual specificity tyrosine phosphorylation regulated kinase 3) came out at: robust z-score, knock-down alone 0.0758; inactive.
Depletion of MAP3K1 (mitogen-activated protein kinase kinase kinase 1) resulted in: robust z-score, knock-down alone 0.989; inactive.
HK2 (hexokinase 2) gave robust z-score, knock-down alone 0.913; inactive.
Knock-down of EPHA3 (EPH receptor A3) resulted in: robust z-score, knock-down alone -0.288; inactive.
With knock-down of ADK (adenosine kinase), the screen gave robust z-score, knock-down alone 0.644; inactive.
MAGI3 scored robust z-score, knock-down alone 0.989; inactive.
Depletion of STK4 (serine/threonine kinase 4) came out at: robust z-score, knock-down alone 0.13; inactive.
For PDK2 (pyruvate dehydrogenase kinase 2) the deposit lists robust z-score, knock-down alone 0.195; inactive.
Depletion of PIK3C2G resulted in: robust z-score, knock-down alone -0.719; inactive.
For PDK4 (pyruvate dehydrogenase kinase 4) the deposit lists robust z-score, knock-down alone 0.989; inactive.
For MAP2K1 (mitogen-activated protein kinase kinase 1) the deposit lists robust z-score, knock-down alone 0.361; inactive.
